Data as given in PubChem BioAssay AID504764 (Drosophila RNAi Screening Center, 2011).
The screen tested about 22,000 reagents; this is a random part of those that have a named target and a result. Over the whole deposit, 403 (1.9%) were called active. 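Unnormalised raw counts per well; ratio z-scores behind the hit calls and whether each hit raises or lowers signal are not deposited.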 A plus sign joins genes that one reagent is predicted to hit. Reagent sequences are not shown. Not stated in the record: the amount of reagent.

- Test: 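Genes whose knock-down alters Notch-dependent transcription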 (primary screen)
- Cells: Drosophila Kc167 cells
- Reagents: long dsRNA against Drosophila genes
- Time to read-out: about 5 days (4 days dsRNA, then 24 h after transfection)
- Challenge: transfection of constitutively active membrane-tethered Notch lacking the extracellular domain, read 24 h later
- Detection: 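Light from a Notch-responsive E(spl)m3 luciferase reporter under active Notch, with control-promoter and no-Notch reporter wells to normalise; raw counts from paired wells a and b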
- Scale: induced reporter light, run 1, well a and induced reporter light, run 1, well b: higher = more light from the Notch target reporter with active Notch; control promoter light, run 1, well a and control promoter light, run 1, well b: higher = more light from the viral control promoter (cell number, transfection, viability); uninduced reporter light, run 1, well a: higher = more light from the Notch target reporter without active Notch
- Call rule: 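Hit if the duplicate-averaged log2 ratio of induced to control-promoter light gives a plate-wise z beyond ±2, or induced to uninduced beyond ±1.8; weak-control or discordant-duplicate wells dropped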
- Calls: active = modifier hit (raised or lowered Notch signal); inactive = not a hit

For Vha16-3 (Vacuolar H[+] ATPase 16kD subunit 3) [DRSC10872], the entry reads induced reporter light, run 1, well a = 1.71e5; induced reporter light, run 1, well b = 1.69e5; control promoter light, run 1, well a = 2.78e5; control promoter light, run 1, well b = 2.86e5; uninduced reporter light, run 1, well a = 11160; inactive. For CG9083 [DRSC04625] the deposit lists induced reporter light, run 1, well a = 2.54e5; induced reporter light, run 1, well b = 2.88e5; control promoter light, run 1, well a = 1.78e5; control promoter light, run 1, well b = 2.13e5; uninduced reporter light, run 1, well a = 16365; active. With knock-down of CG10555 [DRSC17748], the record shows induced reporter light, run 1, well a = 64755; induced reporter light, run 1, well b = 76215; control promoter light, run 1, well a = 1.28e5; control promoter light, run 1, well b = 1.28e5; uninduced reporter light, run 1, well a = 8865; inactive. For MRG15 (MORF-related gene 15) [DRSC16731], the entry reads induced reporter light, run 1, well a = 1.12e5; induced reporter light, run 1, well b = 1.20e5; control promoter light, run 1, well a = 92830; control promoter light, run 1, well b = 89940; uninduced reporter light, run 1, well a = 10160; inactive. nsr (novel spermatogenesis regulator) [DRSC04427] showed induced reporter light, run 1, well a = 99195; induced reporter light, run 1, well b = 1.09e5; control promoter light, run 1, well a = 81690; control promoter light, run 1, well b = 74610; uninduced reporter light, run 1, well a = 7375; inactive. Knock-down of Acp63F (Accessory gland protein 63F) [DRSC08137] resulted in: induced reporter light, run 1, well a = 1.58e5; induced reporter light, run 1, well b = 1.61e5; control promoter light, run 1, well a = 1.75e5; control promoter light, run 1, well b = 1.87e5; uninduced reporter light, run 1, well a = 6715; inactive.

Silencing of CG15432 [DRSC00447] came out at: induced reporter light, run 1, well a = 1.07e5; induced reporter light, run 1, well b = 67800; control promoter light, run 1, well a = 89505; control promoter light, run 1, well b = 73275; uninduced reporter light, run 1, well a = 7370; inactive. Silencing of glob2 (globin 2) [DRSC12560] gave: induced reporter light, run 1, well a = 67950; induced reporter light, run 1, well b = 92405; control promoter light, run 1, well a = 76735; control promoter light, run 1, well b = 70565; uninduced reporter light, run 1, well a = 5245; inactive. Silencing of Acp62F (Accessory gland protein 62F) [DRSC08136] resulted in: induced reporter light, run 1, well a = 1.42e5; induced reporter light, run 1, well b = 1.87e5; control promoter light, run 1, well a = 2.78e5; control promoter light, run 1, well b = 1.97e5; uninduced reporter light, run 1, well a = 9110; inactive. Silencing of sowi (solwind) [DRSC12558] resulted in: induced reporter light, run 1, well a = 65010; induced reporter light, run 1, well b = 79320; control promoter light, run 1, well a = 81355; control promoter light, run 1, well b = 74480; uninduced reporter light, run 1, well a = 6425; inactive. CG31007 [DRSC14029] gave induced reporter light, run 1, well a = 73350; induced reporter light, run 1, well b = 89600; control promoter light, run 1, well a = 1.20e5; control promoter light, run 1, well b = 1.27e5; uninduced reporter light, run 1, well a = 6325; inactive. Depletion of Ir64a (Ionotropic receptor 64a) [DRSC09759] gave: induced reporter light, run 1, well a = 77735; induced reporter light, run 1, well b = 60255; control promoter light, run 1, well a = 93260; control promoter light, run 1, well b = 60815; uninduced reporter light, run 1, well a = 6925; inactive.

Against Ir64a (Ionotropic receptor 64a) [DRSC09760], the values are induced reporter light, run 1, well a = 2.62e5; induced reporter light, run 1, well b = 2.56e5; control promoter light, run 1, well a = 2.71e5; control promoter light, run 1, well b = 3.37e5; uninduced reporter light, run 1, well a = 19100; inactive. For Pxd (Peroxidase) [DRSC16805] the deposit lists induced reporter light, run 1, well a = 2.76e5; induced reporter light, run 1, well b = 3.09e5; control promoter light, run 1, well a = 3.19e5; control promoter light, run 1, well b = 3.35e5; uninduced reporter light, run 1, well a = 23278; inactive. After knock-down of MED31 (Mediator complex subunit 31) [DRSC12142], the record shows induced reporter light, run 1, well a = 55280; induced reporter light, run 1, well b = 59935; control promoter light, run 1, well a = 27840; control promoter light, run 1, well b = 23595; uninduced reporter light, run 1, well a = 6088; inactive. With knock-down of mRpL45 (mitochondrial ribosomal protein L45) [DRSC16146], the screen gave induced reporter light, run 1, well a = 1.06e5; induced reporter light, run 1, well b = 90835; control promoter light, run 1, well a = 1.20e5; control promoter light, run 1, well b = 1.27e5; uninduced reporter light, run 1, well a = 7595; inactive. Depletion of CG18477 + CG31780 [DRSC01955] resulted in: induced reporter light, run 1, well a = 1.00e5; induced reporter light, run 1, well b = 1.29e5; control promoter light, run 1, well a = 1.29e5; control promoter light, run 1, well b = 1.68e5; uninduced reporter light, run 1, well a = 8960; inactive. Depletion of Rab7 [DRSC16810] came out at: induced reporter light, run 1, well a = 1.66e5; induced reporter light, run 1, well b = 1.72e5; control promoter light, run 1, well a = 1.93e5; control promoter light, run 1, well b = 1.93e5; uninduced reporter light, run 1, well a = 14960; inactive.

For CG9919 [DRSC20219], the entry reads induced reporter light, run 1, well a = 1.24e5; induced reporter light, run 1, well b = 1.51e5; control promoter light, run 1, well a = 1.38e5; control promoter light, run 1, well b = 1.24e5; uninduced reporter light, run 1, well a = 12305; inactive. Silencing of CG12480 [DRSC19460] gave: induced reporter light, run 1, well a = 99910; induced reporter light, run 1, well b = 79965; control promoter light, run 1, well a = 94635; control promoter light, run 1, well b = 80970; uninduced reporter light, run 1, well a = 11825; inactive. With knock-down of CG14234 [DRSC19317], the screen gave induced reporter light, run 1, well a = 1.09e5; induced reporter light, run 1, well b = 1.43e5; control promoter light, run 1, well a = 1.24e5; control promoter light, run 1, well b = 1.45e5; uninduced reporter light, run 1, well a = 9375; inactive. CG14234 [DRSC19589] scored induced reporter light, run 1, well a = 90885; induced reporter light, run 1, well b = 1.11e5; control promoter light, run 1, well a = 1.04e5; control promoter light, run 1, well b = 1.34e5; uninduced reporter light, run 1, well a = 10950; inactive. Blos2 [DRSC10147] scored induced reporter light, run 1, well a = 2.13e5; induced reporter light, run 1, well b = 1.46e5; control promoter light, run 1, well a = 1.87e5; control promoter light, run 1, well b = 1.85e5; uninduced reporter light, run 1, well a = 8065; inactive. c11.1 [DRSC18749] scored induced reporter light, run 1, well a = 1.11e5; induced reporter light, run 1, well b = 1.18e5; control promoter light, run 1, well a = 2.55e5; control promoter light, run 1, well b = 2.55e5; uninduced reporter light, run 1, well a = 8930; inactive.

Taken from above:
Under “induced reporter light, run 1, well a”, CG10555 [DRSC17748] has 64755
Result for glob2 (globin 2) [DRSC12560] in “call”: inactive
Result for CG14234 [DRSC19589] under “call”: inactive
